doi:10.1101/581785
Results are given in words; binding and its absence hold for the method and conditions named. In cells and extracts the contact can be indirect. Some entries that bind do so weakly or less than the wild type.

Sequences of proteins named here, by UniProt entry; tags and fusion partners are left off. A change or cut given only in a name is not applied to a line headed by its entry.
UniProt Q7Z2W4: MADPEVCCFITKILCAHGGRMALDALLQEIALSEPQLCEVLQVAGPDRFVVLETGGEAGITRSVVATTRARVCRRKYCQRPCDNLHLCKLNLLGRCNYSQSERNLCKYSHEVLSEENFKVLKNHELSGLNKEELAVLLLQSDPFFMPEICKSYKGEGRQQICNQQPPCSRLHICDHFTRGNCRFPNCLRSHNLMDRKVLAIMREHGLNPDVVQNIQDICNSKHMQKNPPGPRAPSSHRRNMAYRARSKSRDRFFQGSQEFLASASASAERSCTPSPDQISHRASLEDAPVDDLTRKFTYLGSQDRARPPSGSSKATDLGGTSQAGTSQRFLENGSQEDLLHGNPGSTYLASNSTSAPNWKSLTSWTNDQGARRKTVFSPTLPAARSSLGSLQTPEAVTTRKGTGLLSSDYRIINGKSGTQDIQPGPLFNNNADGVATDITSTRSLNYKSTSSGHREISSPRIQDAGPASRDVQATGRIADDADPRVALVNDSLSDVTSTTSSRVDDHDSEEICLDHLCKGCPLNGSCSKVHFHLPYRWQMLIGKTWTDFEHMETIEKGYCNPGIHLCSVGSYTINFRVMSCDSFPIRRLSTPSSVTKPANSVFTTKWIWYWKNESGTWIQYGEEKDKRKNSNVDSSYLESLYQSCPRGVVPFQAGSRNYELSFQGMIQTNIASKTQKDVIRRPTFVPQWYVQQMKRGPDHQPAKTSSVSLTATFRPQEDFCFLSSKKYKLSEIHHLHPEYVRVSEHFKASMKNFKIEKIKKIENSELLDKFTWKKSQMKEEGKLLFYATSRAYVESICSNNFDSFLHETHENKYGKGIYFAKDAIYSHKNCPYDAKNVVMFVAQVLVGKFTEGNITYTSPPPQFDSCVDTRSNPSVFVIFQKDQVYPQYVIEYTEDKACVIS
UniProt O15037: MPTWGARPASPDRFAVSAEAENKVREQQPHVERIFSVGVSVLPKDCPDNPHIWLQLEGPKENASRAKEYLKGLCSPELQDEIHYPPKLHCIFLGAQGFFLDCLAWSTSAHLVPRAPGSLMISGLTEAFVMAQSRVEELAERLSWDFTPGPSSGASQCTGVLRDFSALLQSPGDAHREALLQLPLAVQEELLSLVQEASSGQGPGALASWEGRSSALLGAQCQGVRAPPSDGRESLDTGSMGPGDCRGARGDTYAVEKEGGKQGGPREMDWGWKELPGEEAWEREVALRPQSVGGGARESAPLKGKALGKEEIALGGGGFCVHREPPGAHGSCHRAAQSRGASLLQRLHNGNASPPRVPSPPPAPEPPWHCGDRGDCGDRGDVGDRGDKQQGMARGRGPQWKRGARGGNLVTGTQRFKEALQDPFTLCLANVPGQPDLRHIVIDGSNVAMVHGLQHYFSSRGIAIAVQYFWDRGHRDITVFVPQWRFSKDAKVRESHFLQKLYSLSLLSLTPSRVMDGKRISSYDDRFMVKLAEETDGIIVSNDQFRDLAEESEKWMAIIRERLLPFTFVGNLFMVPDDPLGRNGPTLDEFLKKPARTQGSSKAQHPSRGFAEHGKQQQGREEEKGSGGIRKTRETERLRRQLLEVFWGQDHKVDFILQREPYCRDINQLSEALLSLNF
UniProt Q14258: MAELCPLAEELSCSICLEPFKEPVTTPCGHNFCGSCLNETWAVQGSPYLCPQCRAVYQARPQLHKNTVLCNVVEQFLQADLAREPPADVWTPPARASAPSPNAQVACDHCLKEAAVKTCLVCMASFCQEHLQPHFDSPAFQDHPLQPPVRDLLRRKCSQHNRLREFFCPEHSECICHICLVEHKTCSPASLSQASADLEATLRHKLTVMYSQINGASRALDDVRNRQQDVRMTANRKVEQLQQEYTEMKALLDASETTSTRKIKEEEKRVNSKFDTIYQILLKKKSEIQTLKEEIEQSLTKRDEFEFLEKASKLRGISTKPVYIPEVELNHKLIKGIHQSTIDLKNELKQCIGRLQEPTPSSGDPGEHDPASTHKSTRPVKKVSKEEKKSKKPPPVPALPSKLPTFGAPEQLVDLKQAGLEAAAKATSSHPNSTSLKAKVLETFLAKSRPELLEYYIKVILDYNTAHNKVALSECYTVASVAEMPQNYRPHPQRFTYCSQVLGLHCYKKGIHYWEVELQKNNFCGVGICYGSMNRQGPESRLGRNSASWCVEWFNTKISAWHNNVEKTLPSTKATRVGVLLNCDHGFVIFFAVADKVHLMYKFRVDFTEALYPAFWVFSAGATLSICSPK

Key:
[1] = biological target: ZAP-L, endogenous in HEK293T cells (human (endogenous in HEK293T)) (UniProt Q7Z2W4); test: co-IP
KHNYN-1-FLAG (human) = KHNYN-1-FLAG (human) (UniProt O15037); test: co-IP

Row | binding [1] | binding (KHNYN-1-FLAG (human)) | Substance
1 | binds | – | KHNYN-1-FLAG (from UniProt O15037 1-678)
2 | – | binds | HA-ZAP-L (from UniProt Q7Z2W4-1 1-902)
3 | – | binds | ZAP-L, endogenous in HEK293T cells (from UniProt Q7Z2W4-1 1-902)
4 | – | binds | TRIM25, endogenous in HEK293T cells (from UniProt Q14258 1-630)
